Measured values taken from patent US20260015677.
For at least one entry, the source does not settle the construct or the ends of the probe. No signal at the amounts used counts as a negative.

System: AscI
Experiment: enzyme reaction in vitro
Settings: CutSmart, 37 C, purified recombinant protein, protein details: NEB R0558S

Row | Sequence | activity on this sequence (5mC in AscI site on both strands, made by DNMT5, not cleaved after DNMT5 methylation, variant of hemimethylated AscI substrate 195 bp) | activity on this sequence (5mC at first C of AscI site (GG[5mC]GCGCC) on top strand from primer SEQ:6, cleaved to 135 and 60 bp)
1 | CCGGTAGGGGCCCATTATAGCCGAATTCGGCGCGCCAGGTGGCACTTTTCGGGGAAATGTGCGCGGAACCCCTATTTGTTTATTTTTCTAAATACATTCAAATATGTATCCGCTCATGAGACAATAACCCTGATAAATGC (double strand) [symmetrically methylated AscI substrate 195 bp] | not active | 
2 | CCGGTAGGGGCCCATTATAGCCGAATTCGGCGCGCCAGGTGGCACTTTTCGGGGAAATGTGCGCGGAACCCCTATTTGTTTATTTTTCTAAATACATTCAAATATGTATCCGCTCATGAGACAATAACCCTGATAAATGC (double strand) [hemimethylated AscI substrate 195 bp] |  | active
